PubChem BioAssay AID504784 – Drosophila RNAi Screening Center | 2011

- Aim: 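Search for regulators of lipid droplet storage in oleate-fed fly cells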 (primary screen)
- Cells: Drosophila Kc167 embryonic cells
- Reagent: long dsRNA against Drosophila genes, about 250 ng dsRNA per well
- Time to read-out: 4 days
- Challenge: cells fed 400 µM oleic acid bound to BSA
- Measurement: 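Microscope images give a droplet-to-nucleus area ratio, taken as log and converted to a screen-wide B-score; higher values mean greater lipid storage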
- Direction: droplet/nuclear area B-score: higher = more stored lipid (overstorage)
The screen tested about 17,000 reagents; shown is an unselected part of those that have a named target and a result. 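Each column is one replicate's B-score; the combined score over replicates was not deposited, so single values may mislead.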 Names joined by + are all predicted targets of the reagent. No sequences are given here.

eyg [SID104191136] | droplet/nuclear area B-score, replicate 1 = -2.37; droplet/nuclear area B-score, replicate 2 = -0.0521
eyg [SID104202493] | droplet/nuclear area B-score, replicate 1 = 1.02; droplet/nuclear area B-score, replicate 2 = 0.107
CG6432 [SID104195831] | droplet/nuclear area B-score, replicate 1 = 1.3; droplet/nuclear area B-score, replicate 2 = -0.525
Taf12 [SID104196671] | droplet/nuclear area B-score, replicate 1 = 8.02; droplet/nuclear area B-score, replicate 2 = -0.252
CG18823 [SID104197960] | droplet/nuclear area B-score, replicate 1 = -0.387; droplet/nuclear area B-score, replicate 2 = -0.0319
Hipk [SID104187677] | droplet/nuclear area B-score, replicate 1 = -1.32; droplet/nuclear area B-score, replicate 2 = -0.114
Hipk [SID104188299] | droplet/nuclear area B-score, replicate 1 = -0.975; droplet/nuclear area B-score, replicate 2 = -2.8
Hipk [SID104202512] | droplet/nuclear area B-score, replicate 1 = 1.26; droplet/nuclear area B-score, replicate 2 = -0.072
vir-1 [SID104182293] | droplet/nuclear area B-score, replicate 1 = 0.902; droplet/nuclear area B-score, replicate 2 = -0.0122
vir-1 [SID104182655] | droplet/nuclear area B-score, replicate 1 = 0.164; droplet/nuclear area B-score, replicate 2 = 0.572
CG4866 [SID104186691] | droplet/nuclear area B-score, replicate 1 = -1.59; droplet/nuclear area B-score, replicate 2 = -0.0326
CG18336 [SID104186126] | droplet/nuclear area B-score, replicate 1 = -1.81; droplet/nuclear area B-score, replicate 2 = 0.256
CG33964 + CG13175 [SID104186092] | droplet/nuclear area B-score, replicate 1 = -1.07; droplet/nuclear area B-score, replicate 2 = 1.44
CG33964 + CG13175 [SID104186093] | droplet/nuclear area B-score, replicate 1 = 1.87; droplet/nuclear area B-score, replicate 2 = 2.84
CG33964 + CG13175 [SID104186976] | droplet/nuclear area B-score, replicate 1 = -0.94; droplet/nuclear area B-score, replicate 2 = -2.69
Obp19b [SID104200328] | droplet/nuclear area B-score, replicate 1 = -1.44; droplet/nuclear area B-score, replicate 2 = 0.189
CG30008 [SID104201286] | droplet/nuclear area B-score, replicate 1 = -0.668; droplet/nuclear area B-score, replicate 2 = 3.36
CG3402 [SID104188359] | droplet/nuclear area B-score, replicate 1 = 1.29; droplet/nuclear area B-score, replicate 2 = -1.68
Pex10 [SID104188391] | droplet/nuclear area B-score, replicate 1 = 0.194; droplet/nuclear area B-score, replicate 2 = -0.493; droplet/nuclear area B-score, replicate 3 = 3.39
Pex10 [SID104201607] | droplet/nuclear area B-score, replicate 1 = -0.844; droplet/nuclear area B-score, replicate 2 = 0.153
Pus10 [SID104180421] | droplet/nuclear area B-score, replicate 1 = -0.113; droplet/nuclear area B-score, replicate 2 = -1.02
CG16976 (retired record) [SID104188054] | droplet/nuclear area B-score, replicate 1 = -3.2; droplet/nuclear area B-score, replicate 2 = 0.468
CG16976 (retired record) [SID104188291] | droplet/nuclear area B-score, replicate 1 = -0.588; droplet/nuclear area B-score, replicate 2 = -0.434
raskol [SID104198994] | droplet/nuclear area B-score, replicate 1 = 0.026; droplet/nuclear area B-score, replicate 2 = 1.67
raskol [SID104199523] | droplet/nuclear area B-score, replicate 1 = 1.27; droplet/nuclear area B-score, replicate 2 = 1.8
raskol [SID104199756] | droplet/nuclear area B-score, replicate 1 = 0.0655; droplet/nuclear area B-score, replicate 2 = 0.00033
raskol [SID104199759] | droplet/nuclear area B-score, replicate 1 = -3.16; droplet/nuclear area B-score, replicate 2 = -0.552
raskol [SID104201449] | droplet/nuclear area B-score, replicate 1 = -0.196; droplet/nuclear area B-score, replicate 2 = 0.41
CG4593 [SID104198166] | droplet/nuclear area B-score, replicate 1 = -0.982; droplet/nuclear area B-score, replicate 2 = -0.191
Samuel [SID104181948] | droplet/nuclear area B-score, replicate 1 = 3.01; droplet/nuclear area B-score, replicate 2 = 3.9
Samuel [SID104182193] | droplet/nuclear area B-score, replicate 1 = 1.33; droplet/nuclear area B-score, replicate 2 = 2.25
Samuel [SID104182194] | droplet/nuclear area B-score, replicate 1 = 0.567; droplet/nuclear area B-score, replicate 2 = 0.0221
Samuel [SID104201402] | droplet/nuclear area B-score, replicate 1 = 0.237; droplet/nuclear area B-score, replicate 2 = -1.01
Samuel [SID104202471] | droplet/nuclear area B-score, replicate 1 = 1.58; droplet/nuclear area B-score, replicate 2 = -0.0269
Rpn1 [SID104191066] | droplet/nuclear area B-score, replicate 1 = -2.36; droplet/nuclear area B-score, replicate 2 = 1.13; droplet/nuclear area B-score, replicate 3 = -0.0215
CG17648 [SID104180300] | droplet/nuclear area B-score, replicate 1 = 0.26; droplet/nuclear area B-score, replicate 2 = -0.392
Dcps [SID104192091] | droplet/nuclear area B-score, replicate 2 = 1.9
CG4716 [SID104186676] | droplet/nuclear area B-score, replicate 1 = 0.389; droplet/nuclear area B-score, replicate 2 = 1.55
Uxs [SID104190733] | droplet/nuclear area B-score, replicate 1 = -2.69; droplet/nuclear area B-score, replicate 2 = -0.673
CG5756 [SID104186742] | droplet/nuclear area B-score, replicate 1 = 0.702; droplet/nuclear area B-score, replicate 2 = -0.327
Pld3 [SID104182959] | droplet/nuclear area B-score, replicate 1 = -0.393; droplet/nuclear area B-score, replicate 2 = 1.73
atl [SID104195881] | droplet/nuclear area B-score, replicate 1 = -1.15; droplet/nuclear area B-score, replicate 2 = 0.0556
Act42A [SID104184627] | droplet/nuclear area B-score, replicate 1 = -0.28; droplet/nuclear area B-score, replicate 2 = -0.127
IM33 [SID104180268] | droplet/nuclear area B-score, replicate 1 = -2.25; droplet/nuclear area B-score, replicate 2 = 0.0884
Nup205 [SID104199224] | droplet/nuclear area B-score, replicate 1 = -1.71; droplet/nuclear area B-score, replicate 2 = -0.795
RabX5 [SID104188400] | droplet/nuclear area B-score, replicate 1 = -2.15; droplet/nuclear area B-score, replicate 2 = -0.966
CG12608 [SID104199264] | droplet/nuclear area B-score, replicate 1 = -1.64; droplet/nuclear area B-score, replicate 2 = 1.1; droplet/nuclear area B-score, replicate 3 = 0.968
Dhc36C [SID104183107] | droplet/nuclear area B-score, replicate 1 = -0.236; droplet/nuclear area B-score, replicate 2 = -0.865
CG1951 [SID104195195] | droplet/nuclear area B-score, replicate 1 = 0.106
CG12935 + Nop10 [SID104186817] | droplet/nuclear area B-score, replicate 1 = -1.04; droplet/nuclear area B-score, replicate 2 = -0.495
Ser6 [SID104200366] | droplet/nuclear area B-score, replicate 1 = -0.85; droplet/nuclear area B-score, replicate 2 = -0.00905

Laid out differently: results already given
CG33964 + CG13175 [SID104186092]
- droplet/nuclear area B-score, replicate 1: -1.07
- droplet/nuclear area B-score, replicate 2: 1.44

CG33964 + CG13175 [SID104186093]
- droplet/nuclear area B-score, replicate 1: 1.87
- droplet/nuclear area B-score, replicate 2: 2.84

CG33964 + CG13175 [SID104186976]
- droplet/nuclear area B-score, replicate 1: -0.94
- droplet/nuclear area B-score, replicate 2: -2.69

Obp19b [SID104200328]
- droplet/nuclear area B-score, replicate 1: -1.44
- droplet/nuclear area B-score, replicate 2: 0.189
